Test results reported in PubChem BioAssay AID2570 (National Center for Advancing Translational Sciences (NCATS), 2010).
Listed are the inconclusive results; actives and inactives stand elsewhere. Calls follow the shape of the dose curve; as a rule, active = well fitted curve in the direction sought with a large enough effect; inconclusive = small, poorly fitted or top-dose-only effect, or another doubt; inactive = no such curve, though single readings can be large or run the other way. A potency beside an inconclusive call is a rough fit, not a confirmed value.

By UniProt entry, the sequences of proteins in these tests, tags left out. Where a name states a change or a piece, a line headed by the entry shows the natural chain unless it says otherwise.
UniProt P47901: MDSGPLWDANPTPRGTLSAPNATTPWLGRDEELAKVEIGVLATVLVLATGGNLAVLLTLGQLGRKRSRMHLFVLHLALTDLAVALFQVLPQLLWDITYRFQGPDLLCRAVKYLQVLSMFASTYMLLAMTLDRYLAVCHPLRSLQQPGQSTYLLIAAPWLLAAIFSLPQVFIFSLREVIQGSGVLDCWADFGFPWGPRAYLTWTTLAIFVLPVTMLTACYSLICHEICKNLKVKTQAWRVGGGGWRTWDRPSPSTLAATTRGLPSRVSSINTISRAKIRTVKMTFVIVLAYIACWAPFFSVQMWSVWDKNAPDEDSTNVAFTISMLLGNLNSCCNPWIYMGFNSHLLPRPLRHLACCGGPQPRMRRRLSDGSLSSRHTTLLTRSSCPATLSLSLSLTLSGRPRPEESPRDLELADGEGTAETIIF

These compounds were tested against Vasopressin V1b receptor (Homo sapiens) (UniProt P47901) (assay: Counterscreen Concentration-Response Assay for Antagonists of the Neuropeptide S Receptor: Vasopressin Receptor Calcium Signal Transduction). Conditions: CHO-AVPR1B, vasopressin-stimulated calcium fluorescence, FDSS.
Excerpt: NIH Chemical Genomics Center [NCGC] NIH Molecular Libraries Probe Production centers Network [MLPCN] MLPCN Grant: X01-DA026210-01 Assay Submitter (PI): Heilig, Markus Alexander NCGC Assay Overview: Neuropeptide S receptor (NPSR), previously known as GPR154, is a recently de-orphanized G protein coupled receptor. Its endogenous ligand is the 20 amino acids peptide Neuropeptide S (NPS). […] NPS and its receptor are found in various tissues. Specifically they are highly expressed in brain areas that have been implicated in modulation of arousal, stress and anxiety. Central administration of NPS in mice produces an unusual profile of activity by inducing wakefulness and arousal, while at the same time suppressing anxiety. Therefore, NPSR may represent a novel drug target for the treatment of sleep and anxiety disorders. To identify NPSR antagonists, we developed a cell-based assay with transfected NPS receptor. NPS can stimulate the production of cAMP as well as release intracellular calcium in Chinese hamster ovary cells stably expressing NPS receptor. This change in intracellular calcium can be detected using a calcium indicator dye on a calcium imaging plate reader system (FDSS). To validate the specific action of compounds on the NPS receptor, a counterscreen was developed that tests compounds' antagonism of AVPR1B vasopressin receptor stimulation by vasopressin. […] shares 27% identity with the NPS receptor.
NCGC Assay Protocol Summary: A Chinese hamster ovary (CHO) cell line stably expressing human vasopressin receptor (AVPR1B) was maintained in F-12 Kaighn's media (Invitrogen, Carlsbad, CA, 21127) supplemented with 10 % FBS, 100 units/ml penicillin, 100 ug/ml streptomycin and 250 ug/ml geneticin at 37C, 5% CO2 in a humidified atmosphere. Before the assay, aliquots of cells were frozen and stored at -135C. The assay was performed on a FDSS-7000 kinetic plate reader in 1536-well format. The maximums of kinetic fluorescence responses were converted into text files using the instrument's software data export utility. Data for antagonist response were normalized to the controls for basal activity (DMSO only) and 100% inhibition (no signal). AC50 values were determined from concentration-response data modeled with the standard Hill equation. CHO-V1B 1536-well FDSS assay protocol: (1) Frozen CHO-V1B cells were thaw, washed once with fresh media and resuspended in F-12 Kaighn's media supplemented with 10 % FBS, 100 units/ml penicillin and 100 ug/ml streptomycin. Cells were plated at 3 ul/well (1200 cells) to black, clear-bottom, tissue-culture treated 1536-well plates, and then cultured at 37C, 5 % CO2 for 16 to 30 hours. (2) Add 3 ul of calcium dye (from High Performance PBX Calcium Assay Kit, BD Biosciences). The calcium dye was prepared according to the manufactory's instruction. (3) Incubation at 37C, 5 % CO2 for 60 min. (4) Add 23 nl/well of compound in DMSO solution. The final titration for each compound was between 0.6 nM and 46 uM. (5) Load plates to FDSS-7000. The following steps were performed on FDSS-7000. (6) Record fluorescent background (Ex 480 nm, Em 520-560 nm) for 10 s. (7) Add 2 ul of stimulation reagent (1X HBSS buffer, 0.1% BSA, 60 nM vasopressin). Record antagonist response (Ex 480 nm, Em 520-560 nm) for 180 s. Keywords: MLSMR, MLPCN, NIH Roadmap, qHTS, NCGC, NPS, Neuropeptide S Antagonists
For N=c1c2c(ncn1-c1ccccc1)Oc1ccc3ccccc3c1C2c1ccc2c(c1)OCO2 (stereo not given), the Potency was inconclusive: 87.4 µM [inhibitor, partial curve, poor fit]. For COc1cccc(C2c3c(ncn(CCCN4CCOCC4)c3=N)Oc3ccc4ccccc4c32)c1 (stereo not given), the Potency was inconclusive: 43.8 µM [inhibitor, partial curve, poor fit]. COc1ccccc1C1c2c(ncn(-c3ccccc3)c2=N)Oc2ccc3ccccc3c21 (stereo not given) was tested, and the Potency was inconclusive: 34.8 µM [inhibitor, partial curve, poor fit]. With COc1cccc(C2c3c(ncn(-c4ccccc4)c3=N)Oc3ccc4ccccc4c32)c1 (stereo not given) the Potency was inconclusive: 139 µM [inhibitor, partial curve, poor fit]. N=c1c2c(ncn1-c1ccccc1)Oc1ccc3ccccc3c1C2c1ccc2c(c1)OCCO2 (stereo not given) was tested, and the Potency was inconclusive: 34.8 µM [inhibitor, partial curve, poor fit].
